No constants are given. Whether binding was seen depends on the method and setting. In cells and extracts the contact can be indirect. A yes stands for co-enrichment or nearness to the bait. Other partners may have been found. Sequences can lack the tags named with a protein.
Biological target: T1, Dsn1-3xFLAG (S. cerevisiae (endogenous in budding yeast)) (UniProt P40568)
T1 sequence: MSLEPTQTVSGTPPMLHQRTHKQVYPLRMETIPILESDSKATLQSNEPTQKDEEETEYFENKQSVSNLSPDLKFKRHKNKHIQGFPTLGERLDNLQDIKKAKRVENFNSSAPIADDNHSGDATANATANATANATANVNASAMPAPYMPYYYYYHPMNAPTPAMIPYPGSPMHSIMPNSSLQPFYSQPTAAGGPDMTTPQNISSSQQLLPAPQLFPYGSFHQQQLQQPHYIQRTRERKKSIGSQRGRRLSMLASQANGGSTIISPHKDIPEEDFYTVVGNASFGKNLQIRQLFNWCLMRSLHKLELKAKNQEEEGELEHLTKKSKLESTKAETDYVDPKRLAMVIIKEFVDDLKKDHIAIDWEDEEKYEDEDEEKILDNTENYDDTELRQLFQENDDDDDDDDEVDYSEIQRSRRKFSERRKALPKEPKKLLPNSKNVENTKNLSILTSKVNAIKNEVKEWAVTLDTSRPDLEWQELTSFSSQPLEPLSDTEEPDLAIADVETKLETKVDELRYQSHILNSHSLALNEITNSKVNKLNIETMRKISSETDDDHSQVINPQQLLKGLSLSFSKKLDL
Assay: affinity purification with mass spectrometry

The chains behind the UniProt entries cited, without tags or fusion partners. Where a name states a change or a piece, a line headed by the entry shows the natural chain unless it says otherwise. A line that says so, or that is headed by a name, gives the form on record, which may keep a tag or linker.
UniProt P40460: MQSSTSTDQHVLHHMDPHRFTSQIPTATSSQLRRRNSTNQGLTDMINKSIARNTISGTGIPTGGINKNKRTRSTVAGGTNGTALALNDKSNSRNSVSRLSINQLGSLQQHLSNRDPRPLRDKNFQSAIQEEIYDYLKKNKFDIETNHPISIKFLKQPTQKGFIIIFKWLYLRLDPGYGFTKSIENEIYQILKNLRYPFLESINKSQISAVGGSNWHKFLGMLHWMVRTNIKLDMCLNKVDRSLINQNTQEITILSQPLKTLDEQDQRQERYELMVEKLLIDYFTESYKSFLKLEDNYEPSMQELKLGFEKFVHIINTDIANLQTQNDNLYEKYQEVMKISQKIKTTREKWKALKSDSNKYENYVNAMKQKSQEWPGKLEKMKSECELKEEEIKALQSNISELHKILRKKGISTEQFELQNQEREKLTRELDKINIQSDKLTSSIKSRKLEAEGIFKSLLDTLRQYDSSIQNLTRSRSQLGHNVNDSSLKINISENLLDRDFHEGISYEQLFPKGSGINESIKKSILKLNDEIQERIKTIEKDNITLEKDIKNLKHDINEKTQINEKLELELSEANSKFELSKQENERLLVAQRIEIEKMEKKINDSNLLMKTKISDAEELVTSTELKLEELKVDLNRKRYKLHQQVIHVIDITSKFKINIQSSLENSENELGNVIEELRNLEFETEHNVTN
Ndc80-7D-3xGFP (P40460, form named): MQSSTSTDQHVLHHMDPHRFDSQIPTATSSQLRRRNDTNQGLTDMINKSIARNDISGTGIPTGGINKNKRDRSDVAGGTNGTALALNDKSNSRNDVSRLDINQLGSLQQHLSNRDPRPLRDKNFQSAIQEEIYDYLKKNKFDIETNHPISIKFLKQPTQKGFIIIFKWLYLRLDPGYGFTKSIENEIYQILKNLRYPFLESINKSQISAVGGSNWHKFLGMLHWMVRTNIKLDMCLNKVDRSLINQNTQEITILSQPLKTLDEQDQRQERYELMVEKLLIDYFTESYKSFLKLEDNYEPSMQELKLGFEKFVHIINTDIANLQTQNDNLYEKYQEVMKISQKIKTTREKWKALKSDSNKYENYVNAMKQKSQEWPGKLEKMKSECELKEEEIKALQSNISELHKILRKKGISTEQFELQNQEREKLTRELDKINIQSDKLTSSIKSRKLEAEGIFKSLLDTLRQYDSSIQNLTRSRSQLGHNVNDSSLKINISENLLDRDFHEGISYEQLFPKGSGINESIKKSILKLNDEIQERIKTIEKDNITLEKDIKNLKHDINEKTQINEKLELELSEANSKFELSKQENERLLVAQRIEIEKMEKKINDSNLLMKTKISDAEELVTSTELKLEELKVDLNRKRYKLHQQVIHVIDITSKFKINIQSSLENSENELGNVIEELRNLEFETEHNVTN

Ndc80-3xGFP (Ndc80-WT) (from UniProt P40460 1-691)
binding: binds

Ndc80-7D-3xGFP (from UniProt P40460 1-691)
binding: binds
